No constants are given. Whether binding was seen depends on the method and setting. Where a sequence is shown, tags or fusion partners need not be part of it.
Molecular target: 3 × FLAG-aPKC (atypical protein kinase C subtype iota, PKCι), wild type, full length (human) (UniProt P41743)
Assay: SEC + other: glycerol gradient ultracentrifugation; molecular weight estimate from Stokes radius (SEC) and apparent sedimentation coefficient (glycerol gradient) by the Siegel-Monty/Erickson approximation; 20 mM HEPES pH 7.6, 400 mM NaCl; both purified

binding: no binding
B1: 3 × FLAG-aPKC (atypical protein kinase C subtype iota, PKCι), wild type, full length (enzyme, UniProt P41743 1-596)
chain: MPTQRDSSTMSHTVAGGGSGDHSHQVRVKAYYRGDIMITHFEPSISFEGLCNEVRDMCSFDNEQLFTMKWIDEEGDPCTVSSQLELEEAFRLYELNKDSELLIHVFPCVPERPGMPCPGEDKSIYRRGARRWRKLYCANGHTFQAKRFNRRAHCAICTDRIWGLGRQGYKCINCKLLVHKKCHKLVTIECGRHSLPQEPVMPMDQSSMHSDHAQTVIPYNPSSHESLDQVGEEKEAMNTRESGKASSSLGLQDFDLLRVIGRGSYAKVLLVRLKKTDRIYAMKVVKKELVNDDEDIDWVQTEKHVFEQASNHPFLVGLHSCFQTESRLFFVIEYVNGGDLMFHMQRQRKLPEEHARFYSAEISLALNYLHERGIIYRDLKLDNVLLDSEGHIKLTDYGMCKEGLRPGDTTSTFCGTPNYIAPEILRGEDYGFSVDWWALGVLMFEMMAGRSPFDIVGSSDNPDQNTEDYLFQVILEKQIRIPRSLSVKAASVLKSFLNKDPKERLGCHPQTGFADIQGHPFFRNVDWDMMEQKQVVPPFKPNISGEFGLDNFDSQFTNEPVQLTPDDDDIVRKIDQSEFEGFEYINPLLMSAEECV
